Results are given in words; binding and its absence hold for the method and conditions named. In cells and extracts the contact can be indirect. Tags and fused reporters may be left off the sequences shown.
Target: T1, flag-tagged ARHGEF18 (Arhgef18-HA/FLAG, wild type) (human) (UniProt Q6ZSZ5)
T1 sequence: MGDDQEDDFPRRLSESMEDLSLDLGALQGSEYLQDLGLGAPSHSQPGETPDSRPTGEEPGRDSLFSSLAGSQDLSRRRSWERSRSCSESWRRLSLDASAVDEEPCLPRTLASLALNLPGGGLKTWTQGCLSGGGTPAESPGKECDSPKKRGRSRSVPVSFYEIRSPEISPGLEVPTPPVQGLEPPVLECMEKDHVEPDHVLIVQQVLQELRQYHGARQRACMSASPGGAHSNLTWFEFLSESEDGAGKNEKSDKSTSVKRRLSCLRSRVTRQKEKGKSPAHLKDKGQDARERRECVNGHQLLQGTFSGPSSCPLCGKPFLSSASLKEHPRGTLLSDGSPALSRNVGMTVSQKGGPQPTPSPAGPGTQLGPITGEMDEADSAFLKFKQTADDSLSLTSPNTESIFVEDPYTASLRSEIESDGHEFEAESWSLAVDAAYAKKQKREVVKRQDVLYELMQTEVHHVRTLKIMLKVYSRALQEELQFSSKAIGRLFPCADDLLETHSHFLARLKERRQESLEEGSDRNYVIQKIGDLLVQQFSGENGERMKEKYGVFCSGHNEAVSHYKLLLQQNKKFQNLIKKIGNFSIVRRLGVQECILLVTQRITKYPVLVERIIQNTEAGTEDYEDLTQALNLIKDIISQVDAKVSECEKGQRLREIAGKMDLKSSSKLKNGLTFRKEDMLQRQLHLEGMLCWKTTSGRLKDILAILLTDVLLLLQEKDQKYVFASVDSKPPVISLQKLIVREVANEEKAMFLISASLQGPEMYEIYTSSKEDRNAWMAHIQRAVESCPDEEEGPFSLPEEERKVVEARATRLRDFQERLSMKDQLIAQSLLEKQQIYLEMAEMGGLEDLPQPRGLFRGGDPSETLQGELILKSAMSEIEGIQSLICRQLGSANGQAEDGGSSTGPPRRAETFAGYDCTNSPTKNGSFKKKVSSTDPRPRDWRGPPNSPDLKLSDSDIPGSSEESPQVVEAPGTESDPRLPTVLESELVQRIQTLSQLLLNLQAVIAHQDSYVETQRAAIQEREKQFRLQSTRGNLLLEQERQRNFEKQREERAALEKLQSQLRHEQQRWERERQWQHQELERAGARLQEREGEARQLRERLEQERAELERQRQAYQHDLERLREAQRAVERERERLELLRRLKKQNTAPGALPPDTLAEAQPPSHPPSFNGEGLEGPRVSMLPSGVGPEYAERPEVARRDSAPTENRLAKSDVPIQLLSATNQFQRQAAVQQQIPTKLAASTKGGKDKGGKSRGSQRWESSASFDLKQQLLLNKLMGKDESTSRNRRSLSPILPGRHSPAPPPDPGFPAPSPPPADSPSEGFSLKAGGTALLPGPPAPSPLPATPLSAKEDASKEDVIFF
Assay: co-IP

B1: VE-cadherin (endogenous, HUVEC) (protein, UniProt P33151 48-784)
chain: DWIWNQMHIDEEKNTSLPHHVGKIKSSVSRKNAKYLLKGEYVGKVFRVDAETGDVFAIERLDRENISEYHLTAVIVDKDTGENLETPSSFTIKVHDVNDNWPVFTHRLFNASVPESSAVGTSVISVTAVDADDPTVGDHASVMYQILKGKEYFAIDNSGRIITITKSLDREKQARYEIVVEARDAQGLRGDSGTATVLVTLQDINDNFPFFTQTKYTFVVPEDTRVGTSVGSLFVEDPDEPQNRMTKYSILRGDYQDAFTIETNPAHNEGIIKPMKPLDYEYIQQYSFIVEATDPTIDLRYMSPPAGNRAQVIINITDVDEPPIFQQPFYHFQLKENQKKPLIGTVLAMDPDAARHSIGYSIRRTSDKGQFFRVTKKGDIYNEKELDREVYPWYNLTVEAKELDSTGTPTGKESIVQVHIEVLDENDNAPEFAKPYQPKVCENAVHGQLVLQISAIDKDITPRNVKFKFILNTENNFTLTDNHDNTANITVKYGQFDREHTKVHFLPVVISDNGMPSRTGTSTLTVAVCKCNEQGEFTFCEDMAAQVGVSIQAVVAILLCILTITVITLLIFLRRRLRKQARAHGKSVPEIHEQLVTYDEEGGGEMDTTSYDVSVLNSVRRGGAKPPRPALDARPSLYAQVQKPPRHAPGAHGGPGEMAAMIEVKKDEADHDGDGPPYDTLHIYGYEGSESIAESLSSLGTDSSDSDVDYDFLNDWGPRFKMLAELYGSDPREELLY
**Q.** Which binding does the source give for B1 here?
**A.** no binding

Reference: paper doi:10.1101/2022.09.10.507283
